The results in this text go back to article PMC6375878.

Protein sequences, listed by entry. Tags and fused reporters are not part of them. Residues count along the entry.
UniProt Q9BZS1, residues 1-417: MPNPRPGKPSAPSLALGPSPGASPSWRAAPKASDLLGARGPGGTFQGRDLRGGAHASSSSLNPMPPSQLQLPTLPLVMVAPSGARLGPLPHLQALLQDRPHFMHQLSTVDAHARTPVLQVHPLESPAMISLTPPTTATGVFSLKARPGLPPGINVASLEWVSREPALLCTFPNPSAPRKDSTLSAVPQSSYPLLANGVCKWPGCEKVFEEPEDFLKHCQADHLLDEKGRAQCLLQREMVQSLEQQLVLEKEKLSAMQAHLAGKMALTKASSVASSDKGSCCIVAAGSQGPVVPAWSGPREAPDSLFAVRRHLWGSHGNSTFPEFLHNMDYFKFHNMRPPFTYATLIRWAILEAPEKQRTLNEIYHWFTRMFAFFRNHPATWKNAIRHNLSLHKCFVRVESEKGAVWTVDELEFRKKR
UniProt O14744: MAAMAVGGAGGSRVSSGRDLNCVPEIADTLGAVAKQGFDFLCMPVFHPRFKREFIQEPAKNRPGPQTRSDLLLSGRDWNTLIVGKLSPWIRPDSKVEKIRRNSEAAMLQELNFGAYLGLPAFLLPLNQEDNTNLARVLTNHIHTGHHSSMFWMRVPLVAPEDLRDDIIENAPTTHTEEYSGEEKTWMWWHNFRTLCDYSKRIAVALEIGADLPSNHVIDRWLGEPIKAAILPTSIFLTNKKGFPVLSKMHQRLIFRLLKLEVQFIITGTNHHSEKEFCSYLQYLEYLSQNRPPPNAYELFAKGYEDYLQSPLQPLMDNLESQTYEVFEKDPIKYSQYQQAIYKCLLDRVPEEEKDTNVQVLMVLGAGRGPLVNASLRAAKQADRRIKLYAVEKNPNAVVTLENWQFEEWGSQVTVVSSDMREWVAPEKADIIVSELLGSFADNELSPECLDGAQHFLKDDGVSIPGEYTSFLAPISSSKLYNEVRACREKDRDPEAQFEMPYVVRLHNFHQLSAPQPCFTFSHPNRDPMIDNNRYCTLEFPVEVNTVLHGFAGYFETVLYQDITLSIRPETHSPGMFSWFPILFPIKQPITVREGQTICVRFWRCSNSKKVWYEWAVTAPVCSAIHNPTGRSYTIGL

One test concerns the target HA-FOXP3 (human) (UniProt Q9BZS1). In words: co-IP; 293T co-transfected with HA-FOXP3 and FLAG-PRMT; lysate with anti-HA or anti-FLAG agarose 2 h at 4°C, washed three times with lysis buffer; blot with anti-Flag M2 or anti-HA peroxidase.
The target of test [1] is FOXP3, endogenous in human Tregs (human (endogenous in expanded human Tregs)) (UniProt Q9BZS1). In words: co-IP; endogenous proteins; expanded human Tregs lysed in RIPA buffer; anti-FOXP3, anti-PRMT5 or IgG overnight at 4°C, Protein G-Sepharose 1 h at 4°C; Western blot.

These are yes or no findings as the source states them, for the method shown. Binding seen in cells or lysates may run through a third protein. Some results given as binding are weak or reduced against the parent protein; the word gives no strength.

Consider “FLAG-PRMT5 (from UniProt O14744 1-637) (enzyme)”, for which the binding result with HA-FOXP3 (human) is recorded as “binds”. Consider “PRMT5, endogenous in human Tregs (from UniProt O14744 1-637) (enzyme)”, for which, in test [1], the binding entry is given as “binds”.
